Data: patent US11124507B2, “1H-pyrrolopyridine compound, N-oxide thereof or salt thereof, agricultural and horticultural insecticide comprising the compound, and method for using the insecticide” (Nihon Nohyaku Co., Ltd., priority 2016, dated 2021)
Some entries share one result that the patent states for a list of compounds.

Experiments:
Format in all cases: in vivo
Myzus persicae = assay: Test for control efficacy on Myzus persicae (foliar application, Chinese cabbage); settings: 500 ppm, foliar application to potted Chinese cabbage plants, 6 days after application
Excerpt: Test for control efficacy on Myzus persicae Chinese cabbage plants were planted in plastic pots (diameter: 8 cm, height: 8 cm), Green peach aphids (Myzus persicae) were propagated on the plants, and the number of surviving Green peach aphids in each pot was counted. The condensed heterocyclic compounds represented by the general formula (1) of the present invention or salts thereof were separately dispersed in water and diluted to 500 ppm. The agrochemical dispersions were applied to the foliage of the potted Chinese cabbage plants. After the plants were air-dried, the pots were kept in a greenhouse. At 6 days after the foliar application, the number of surviving Green peach aphids on the Chinese cabbage plant in each pot was counted, the control rate was calculated according to the formula shown below, and the control efficacy was evaluated according to the criteria shown below. Control rate=100−{(T×Ca)/(Ta×C)}×100 [Math. 1] Ta: the number of survivors before the foliar application in a treatment plot T: the number of survivors after the foliar application in a treatment plot Ca: the number of survivors before the foliar application in a non-treatment plot C: the number of survivors after the foliar application in a non-treatment plot Criteria A: the control rate is 100%. B: the control rate is 90 to 99%. C: the control rate is 80 to 89%. D: the control rate is 50 to 79%.

Laodelphax striatellus = assay: Insecticidal test on Laodelphax striatellus (rice seedling dip); settings: 500 ppm, rice seedlings dipped 30 seconds, ten 3rd-instar larvae, 8 days after inoculation
Excerpt: Insecticidal Test on Laodelphax striatellus
The condensed heterocyclic compounds represented by the general formula (1) of the present invention or salts thereof were separately dispersed in water and diluted to 500 ppm. Rice plant seedlings (variety: Nihonbare) were dipped in the agrochemical dispersions for 30 seconds. After air-dried, each seedling was put into a separate glass test tube and inoculated with ten 3rd-instar larvae of Laodelphax striatellus, and then the glass test tubes were capped with cotton plugs. At 8 days after the inoculation, the numbers of surviving larvae and dead larvae were counted, the corrected mortality rate was calculated according to the formula shown below, and the insecticidal efficacy was evaluated according to the criteria shown below. Corrected mortality rate (%)=100×(Survival rate in a non-treatment plot−Survival rate in a treatment plot)/Survival rate in a non-treatment plot [Math. 2] Corrected Mortality Rate A: the corrected mortality rate is 100%.

Plutella xylostella = assay: Insecticidal test on Plutella xylostella (dip of Chinese cabbage seedlings with laid eggs); settings: 500 ppm, seedlings with laid eggs dipped about 30 seconds, 25° C., 6 days after dip treatment, criteria of Test Example 2
Experimental: Insecticidal Test on Plutella xylostella
Adults of Plutella xylostella were released onto Chinese cabbage seedlings and allowed to lay eggs thereon. […] After air-dried, the seedlings were kept in a thermostatic chamber at 25° C. […] This test was conducted in triplicate using 10 adults of Plutella xylostella per plot. Corrected mortality rate (%)=100×(Number of hatched larvae in a non-treatment plot−Number of hatched larvae in a treatment plot)/Number of hatched larvae in a non-treatment plot [Math. 3]

Structure (SMILES)	control efficacy (control rate), activity level (Myzus persicae)	insecticidal efficacy (corrected mortality rate), activity level (Laodelphax striatellus)	insecticidal efficacy (corrected mortality rate), activity level (Plutella xylostella)
CCS(=O)(=O)c1cc2cc(Br)ccc2nc1-c1[nH]c2cc(C(F)(F)F)cnc2c1F [Compound 1-6]	A (the control rate is 100%.)	A (the corrected mortality rate is 100%.)	A (the corrected mortality rate is 100%.)
CCS(=O)(=O)c1cc2ccc(Br)cc2nc1-c1[nH]c2cc(C(F)(F)F)cnc2c1F [Compound 1-7]	A (the control rate is 100%.)	A (the corrected mortality rate is 100%.)	A (the corrected mortality rate is 100%.)
CCS(=O)(=O)c1cc2cc(C3CC3)ccc2nc1-c1[nH]c2cc(C(F)(F)F)cnc2c1F [Compound 1-8]	A (the control rate is 100%.)	A (the corrected mortality rate is 100%.)	A (the corrected mortality rate is 100%.)
CCS(=O)(=O)c1cc2ccc(C(F)(F)F)cc2nc1-c1[nH]c2cc(C(F)(F)F)cnc2c1F [Compound 1-11]	A (the control rate is 100%.)	A (the corrected mortality rate is 100%.)	A (the corrected mortality rate is 100%.)
CCS(=O)(=O)c1cc2cc(Br)ccc2nc1-c1[nH]c2cc(C(F)(F)F)cnc2c1Cl [Compound 1-47]	A (the control rate is 100%.)	A (the corrected mortality rate is 100%.)	A (the corrected mortality rate is 100%.)
CCS(=O)(=O)c1cc2ccc(Br)cc2nc1-c1[nH]c2cc(C(F)(F)F)cnc2c1Cl [Compound 1-48]	A (the control rate is 100%.)	A (the corrected mortality rate is 100%.)	A (the corrected mortality rate is 100%.)
CCS(=O)(=O)c1cc2ccc(C3CC3)cc2nc1-c1[nH]c2cc(C(F)(F)F)cnc2c1Cl [Compound 1-50]	A (the control rate is 100%.)	A (the corrected mortality rate is 100%.)	A (the corrected mortality rate is 100%.)
CCS(=O)(=O)c1cc2ccc(C(F)(F)F)cc2nc1-c1[nH]c2cc(C(F)(F)F)cnc2c1Cl [Compound 1-52]	A (the control rate is 100%.)	A (the corrected mortality rate is 100%.)	A (the corrected mortality rate is 100%.)
CCS(=O)(=O)c1cc2cc(Br)ccc2nc1-c1c(F)c2ncc(C(F)(F)F)cc2n1C(C)=O [Compound 2-11]	A (the control rate is 100%.)	A (the corrected mortality rate is 100%.)	A (the corrected mortality rate is 100%.)
CCS(=O)(=O)c1cc2ccc(C(F)(F)F)cc2nc1-c1c(F)c2ncc(C(F)(F)F)cc2n1C(C)=O [Compound 2-21]	A (the control rate is 100%.)	A (the corrected mortality rate is 100%.)	A (the corrected mortality rate is 100%.)
CCS(=O)(=O)c1cc2ccc(Br)cc2nc1-c1c(F)c2ncc(C(F)(F)F)cc2n1C(C)=O [Compound 2-31]	A (the control rate is 100%.)	A (the corrected mortality rate is 100%.)	A (the corrected mortality rate is 100%.)
CCS(=O)(=O)c1cc2ccc(Br)cc2nc1-c1c(F)c2ncc(C(F)(F)F)cc2n1C(=O)OC [Compound 2-32]	A (the control rate is 100%.)	A (the corrected mortality rate is 100%.)	A (the corrected mortality rate is 100%.)
CCSc1cc2ccc(C(F)(F)F)cc2nc1-c1cc2ncc(C(F)(F)F)cc2n1C(=O)OC(C)(C)C [Compound 2-43]	A (the control rate is 100%.)	A (the corrected mortality rate is 100%.)	A (the corrected mortality rate is 100%.)
CCS(=O)(=O)c1cc2ccc(C(F)(F)F)cc2nc1-c1cc2ncc(C(F)(F)F)cc2n1C(=O)OC(C)(C)C [Compound 2-44]	A (the control rate is 100%.)	A (the corrected mortality rate is 100%.)	A (the corrected mortality rate is 100%.)
CCSc1cc2cc(Br)ccc2nc1-c1cc2ncc(C(F)(F)F)cc2n1C(=O)OC(C)(C)C [Compound 2-45]	A (the control rate is 100%.)	A (the corrected mortality rate is 100%.)	A (the corrected mortality rate is 100%.)
CCS(=O)(=O)c1cc2cc(Br)ccc2nc1-c1cc2ncc(C(F)(F)F)cc2n1C(=O)OC(C)(C)C [Compound 2-46]	A (the control rate is 100%.)	A (the corrected mortality rate is 100%.)	A (the corrected mortality rate is 100%.)
CCS(=O)(=O)c1cc2cc(C3CC3)ccc2nc1-c1cc2ncc(C(F)(F)F)cc2n1C(=O)OC(C)(C)C [Compound 2-47]	A (the control rate is 100%.)	A (the corrected mortality rate is 100%.)	A (the corrected mortality rate is 100%.)
CCS(=O)(=O)c1cc2ccc(Br)cc2nc1-c1c(F)c2ncc(C(F)(F)F)cc2n1C(=O)OC(C)(C)C [Compound 2-48]	A (the control rate is 100%.)	A (the corrected mortality rate is 100%.)	A (the corrected mortality rate is 100%.)
CC[S+]([O-])c1cc2ccc(Br)cc2nc1-c1cc2ncc(C(F)(F)F)cc2n1C(=O)OC(C)(C)C (stereo not drawn) [Compound 2-50]	A (the control rate is 100%.)	A (the corrected mortality rate is 100%.)	A (the corrected mortality rate is 100%.)
CCS(=O)(=O)c1cc2ccc(Br)cc2nc1-c1c(Cl)c2ncc(C(F)(F)F)cc2n1C(C)=O [Compound 2-60]	A (the control rate is 100%.)	A (the corrected mortality rate is 100%.)	A (the corrected mortality rate is 100%.)
CCS(=O)(=O)c1cc2ccc(Br)cc2nc1-c1c(Cl)c2ncc(C(F)(F)F)cc2n1C(=O)OC [Compound 2-62]	A (the control rate is 100%.)	A (the corrected mortality rate is 100%.)	A (the corrected mortality rate is 100%.)
CCS(=O)(=O)c1cc2ccc(Br)cc2nc1-c1c(Cl)c2ncc(C(F)(F)F)cc2n1S(C)(=O)=O [Compound 2-63]	A (the control rate is 100%.)	A (the corrected mortality rate is 100%.)	A (the corrected mortality rate is 100%.)
CCS(=O)(=O)c1cc2ccc(C3CC3)cc2nc1-c1c(Cl)c2ncc(C(F)(F)F)cc2n1C(=O)OC(C)(C)C [Compound 2-71]	A (the control rate is 100%.)	A (the corrected mortality rate is 100%.)	A (the corrected mortality rate is 100%.)
